# Assay: Encapsulation of camptothecin by peptide-GdNPs, fluorescence spectroscopy
# Assay type: physicochemical
smiles,measurement,setting,value
CC[C@@]1(O)C(=O)OCc2c1cc1n(c2=O)Cc2cc3ccccc3nc2-1 [camptothecin],fluorescence emission maximum of CPT in the presence of [(WR)5C]-GdNPs,"1:1 molar ratio, after 2-h incubation, blue shift",417 nm
same,fluorescence emission maximum of CPT alone,CPT alone,432 nm

# — publication PMC7557599, “Cyclic Peptide-Gadolinium Nanoparticles for Enhanced Intracellular Delivery” (Pharmaceutics, 2020)
